Values of other authors as cited in patent US20150164922A1, “USE OF TETRACYCLINE COMPOSITIONS FOR WOUND TREATMENT AND SKIN RESTORATION” (Foamix Pharmaceuticals Ltd., priority 2012, published 2015).
At least one compound was matched to its structure with a doubt left.

Tested on: acne lesions
Conditions: oral

In the case of `CN(C)c1ccc(O)c2c1C[C@H]1C[C@H]3[C@H](N(C)C)C(O)=C(C(N)=O)C(=O)[C@@]3(O)C(O)=C1C2=O` [Minocycline], the “known effect on inflammatory lesions” value is listed as “about 50%” and the “known effect on non-inflammatory lesions” value is listed as “no effect”.
